Measured values from PMC4432279.
These are yes or no findings as the source states them, for the method shown. In cells and extracts the contact can be indirect. These calls come from enrichment with a bait or labelling near it, and not all partners need be listed.

Sequences of proteins named here, by UniProt entry; tags and fusion partners are left off. Residues count along the entry.
UniProt O95071: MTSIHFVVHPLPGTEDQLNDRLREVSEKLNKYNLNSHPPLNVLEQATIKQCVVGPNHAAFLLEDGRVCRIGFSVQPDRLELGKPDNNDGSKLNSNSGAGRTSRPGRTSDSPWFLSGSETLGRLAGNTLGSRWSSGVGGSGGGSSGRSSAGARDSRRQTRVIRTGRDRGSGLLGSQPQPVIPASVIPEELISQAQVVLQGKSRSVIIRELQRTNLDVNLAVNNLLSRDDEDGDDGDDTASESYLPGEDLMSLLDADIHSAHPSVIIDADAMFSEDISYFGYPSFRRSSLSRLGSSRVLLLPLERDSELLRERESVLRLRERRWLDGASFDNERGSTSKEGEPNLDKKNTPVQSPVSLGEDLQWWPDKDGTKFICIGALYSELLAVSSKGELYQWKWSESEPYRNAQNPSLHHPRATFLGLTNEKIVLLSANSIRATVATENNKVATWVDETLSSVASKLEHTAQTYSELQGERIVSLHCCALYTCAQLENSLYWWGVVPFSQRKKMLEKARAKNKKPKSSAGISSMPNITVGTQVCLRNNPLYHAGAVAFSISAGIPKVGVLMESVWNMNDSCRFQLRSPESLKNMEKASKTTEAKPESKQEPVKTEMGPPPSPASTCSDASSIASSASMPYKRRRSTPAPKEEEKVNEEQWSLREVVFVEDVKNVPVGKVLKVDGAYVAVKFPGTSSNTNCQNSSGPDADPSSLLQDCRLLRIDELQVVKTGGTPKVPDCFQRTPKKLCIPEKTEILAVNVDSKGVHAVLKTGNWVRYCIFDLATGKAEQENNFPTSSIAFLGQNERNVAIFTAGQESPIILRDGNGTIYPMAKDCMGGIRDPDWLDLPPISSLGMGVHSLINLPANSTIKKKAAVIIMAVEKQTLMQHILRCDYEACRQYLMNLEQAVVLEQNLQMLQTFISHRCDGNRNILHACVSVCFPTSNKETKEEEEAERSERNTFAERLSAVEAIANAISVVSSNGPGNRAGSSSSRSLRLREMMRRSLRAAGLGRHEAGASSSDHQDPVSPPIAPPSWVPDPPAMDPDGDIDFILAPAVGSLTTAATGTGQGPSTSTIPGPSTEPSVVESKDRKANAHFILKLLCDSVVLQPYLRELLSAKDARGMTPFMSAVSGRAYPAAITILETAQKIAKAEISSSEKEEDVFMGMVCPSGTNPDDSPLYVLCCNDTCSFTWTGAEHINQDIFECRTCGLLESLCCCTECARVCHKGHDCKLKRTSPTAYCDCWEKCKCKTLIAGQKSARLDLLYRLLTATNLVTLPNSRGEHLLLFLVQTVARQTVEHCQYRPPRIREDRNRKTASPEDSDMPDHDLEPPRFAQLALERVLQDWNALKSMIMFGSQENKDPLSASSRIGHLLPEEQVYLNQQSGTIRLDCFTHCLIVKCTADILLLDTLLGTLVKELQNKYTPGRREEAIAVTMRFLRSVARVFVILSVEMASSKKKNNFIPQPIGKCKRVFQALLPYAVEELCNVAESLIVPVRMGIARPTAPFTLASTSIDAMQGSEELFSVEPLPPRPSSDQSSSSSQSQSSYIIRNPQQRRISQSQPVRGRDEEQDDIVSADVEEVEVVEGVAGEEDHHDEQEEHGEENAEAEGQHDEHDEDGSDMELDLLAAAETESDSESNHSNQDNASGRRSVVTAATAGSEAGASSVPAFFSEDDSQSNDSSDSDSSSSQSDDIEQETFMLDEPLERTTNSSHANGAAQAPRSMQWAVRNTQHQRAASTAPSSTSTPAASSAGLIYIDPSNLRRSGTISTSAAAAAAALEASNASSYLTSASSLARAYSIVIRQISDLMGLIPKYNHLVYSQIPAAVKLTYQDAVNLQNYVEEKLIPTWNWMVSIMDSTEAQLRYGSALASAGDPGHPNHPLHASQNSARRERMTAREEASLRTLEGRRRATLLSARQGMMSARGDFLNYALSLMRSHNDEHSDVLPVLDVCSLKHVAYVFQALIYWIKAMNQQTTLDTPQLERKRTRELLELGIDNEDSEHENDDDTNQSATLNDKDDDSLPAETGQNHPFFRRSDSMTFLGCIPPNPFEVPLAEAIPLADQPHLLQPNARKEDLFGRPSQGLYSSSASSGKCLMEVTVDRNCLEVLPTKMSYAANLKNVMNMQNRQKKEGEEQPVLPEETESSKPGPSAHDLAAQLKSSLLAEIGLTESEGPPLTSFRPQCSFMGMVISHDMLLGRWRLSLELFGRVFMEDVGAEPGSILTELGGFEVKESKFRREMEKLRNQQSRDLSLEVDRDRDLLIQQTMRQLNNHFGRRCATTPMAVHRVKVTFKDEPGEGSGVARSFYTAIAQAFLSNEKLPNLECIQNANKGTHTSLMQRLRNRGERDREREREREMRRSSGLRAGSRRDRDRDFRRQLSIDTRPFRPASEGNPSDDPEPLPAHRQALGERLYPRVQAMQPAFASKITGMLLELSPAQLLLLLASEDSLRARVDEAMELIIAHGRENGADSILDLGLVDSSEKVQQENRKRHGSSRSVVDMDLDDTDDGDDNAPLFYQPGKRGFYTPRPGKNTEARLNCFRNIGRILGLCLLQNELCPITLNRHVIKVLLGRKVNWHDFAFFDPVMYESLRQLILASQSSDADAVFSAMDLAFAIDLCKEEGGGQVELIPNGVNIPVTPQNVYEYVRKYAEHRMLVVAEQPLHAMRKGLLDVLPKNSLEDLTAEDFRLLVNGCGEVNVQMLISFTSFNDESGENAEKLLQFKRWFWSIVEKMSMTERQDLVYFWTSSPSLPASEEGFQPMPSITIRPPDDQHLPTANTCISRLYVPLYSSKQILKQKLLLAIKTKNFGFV
UniProt Q9NQH7, residues 32-507: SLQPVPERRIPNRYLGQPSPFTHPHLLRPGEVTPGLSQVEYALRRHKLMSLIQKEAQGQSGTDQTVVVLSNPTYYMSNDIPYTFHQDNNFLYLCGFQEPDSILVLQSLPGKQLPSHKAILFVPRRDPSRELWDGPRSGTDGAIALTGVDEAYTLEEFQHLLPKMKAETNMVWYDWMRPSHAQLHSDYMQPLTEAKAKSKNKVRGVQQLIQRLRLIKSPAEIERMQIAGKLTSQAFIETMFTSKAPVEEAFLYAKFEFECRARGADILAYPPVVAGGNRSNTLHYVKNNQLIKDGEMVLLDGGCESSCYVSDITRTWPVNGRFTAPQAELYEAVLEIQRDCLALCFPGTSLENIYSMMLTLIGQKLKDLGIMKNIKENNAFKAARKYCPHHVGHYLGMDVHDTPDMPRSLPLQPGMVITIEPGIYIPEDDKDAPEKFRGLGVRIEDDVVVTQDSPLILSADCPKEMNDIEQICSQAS
UniProt Q07021, residues 74-282: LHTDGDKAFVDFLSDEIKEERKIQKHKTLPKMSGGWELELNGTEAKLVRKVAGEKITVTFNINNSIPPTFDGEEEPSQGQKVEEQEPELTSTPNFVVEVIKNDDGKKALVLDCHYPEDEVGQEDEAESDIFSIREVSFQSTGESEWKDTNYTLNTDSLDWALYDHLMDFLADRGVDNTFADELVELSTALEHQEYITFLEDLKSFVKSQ
UniProt O43684: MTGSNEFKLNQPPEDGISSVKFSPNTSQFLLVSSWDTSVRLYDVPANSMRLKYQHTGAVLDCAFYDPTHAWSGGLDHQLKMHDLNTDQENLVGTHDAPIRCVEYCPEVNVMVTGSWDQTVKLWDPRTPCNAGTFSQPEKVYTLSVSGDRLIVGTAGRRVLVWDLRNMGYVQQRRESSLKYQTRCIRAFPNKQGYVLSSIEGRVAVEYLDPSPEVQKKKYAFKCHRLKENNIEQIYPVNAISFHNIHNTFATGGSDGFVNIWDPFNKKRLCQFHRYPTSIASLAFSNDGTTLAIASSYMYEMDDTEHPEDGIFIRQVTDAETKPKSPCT

Molecular target: HS-EDD (2×HA/2×Strep-tagged E3 identified by differential display) (human) (UniProt O95071)
Assay: affinity purification with mass spectrometry; lysates of HS-EDD or HS tag HEK293 cells tandem affinity-purified by HA and Streptactin resins; SDS-PAGE, in-gel trypsin digest, LC-MS (LTQ-Orbitrap); proteins found in the HS-only sample removed; n = 3

Row | binding | Substance
1 | binds | Xaa-Pro aminopeptidase 3 (from UniProt Q9NQH7 32-507) (enzyme)
2 | binds | C1QBP (from UniProt Q07021 74-282)
3 | binds | endogenous BUB3 (budding uninhibited by benzimidazoles 3) (from UniProt O43684 1-328)
